This experiment has as its target Drosophila Fragile-X mental retardation protein (DFMRP) (Drosophila (endogenous in fly brains)) (UniProt Q9NFU0). Nature of the experiment: co-IP; fly protein extracts (adult heads or larval body wall muscle preparations with brains) precleared, incubated with mouse anti-DFMRP at 4°C overnight, protein A/G agarose beads, washed 3 times with RIPA buffer, blot with anti-DTor; control, DTor-cDNA and DTor-RNAi expressing brains.

Protein sequences, listed by entry. Tags and fused reporters are not part of them.
UniProt Q9NFU0: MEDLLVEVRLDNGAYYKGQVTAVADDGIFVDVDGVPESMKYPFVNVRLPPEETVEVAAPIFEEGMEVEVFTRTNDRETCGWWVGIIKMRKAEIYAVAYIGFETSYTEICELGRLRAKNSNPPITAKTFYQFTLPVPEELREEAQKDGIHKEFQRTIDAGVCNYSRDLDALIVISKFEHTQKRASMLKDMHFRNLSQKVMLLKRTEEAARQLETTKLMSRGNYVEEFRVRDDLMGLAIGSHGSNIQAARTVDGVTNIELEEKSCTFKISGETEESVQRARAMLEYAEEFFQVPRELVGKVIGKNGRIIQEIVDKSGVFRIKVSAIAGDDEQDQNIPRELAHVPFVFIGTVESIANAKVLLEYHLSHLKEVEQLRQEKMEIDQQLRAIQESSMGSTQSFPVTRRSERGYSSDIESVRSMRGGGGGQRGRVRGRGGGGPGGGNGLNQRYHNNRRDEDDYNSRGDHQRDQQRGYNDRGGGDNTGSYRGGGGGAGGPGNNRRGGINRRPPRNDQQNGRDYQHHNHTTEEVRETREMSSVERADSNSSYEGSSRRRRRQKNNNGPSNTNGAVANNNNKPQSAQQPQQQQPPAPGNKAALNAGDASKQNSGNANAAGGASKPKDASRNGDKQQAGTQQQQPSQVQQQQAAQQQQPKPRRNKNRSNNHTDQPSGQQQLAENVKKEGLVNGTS

These are yes or no findings as the source states them, for the method shown. In cells and extracts the contact can be indirect. Some results given as binding are weak or reduced against the parent protein; the word gives no strength.

B1: Drosophila Torsin (DTor) expressed from UAS-DTor-cDNA (protein, UniProt O77277 25-340)
chain: VDPLTIGAVGAVALGAYFKEHTYCRFAECCDDRNIPARIDELERSLERTLIGQHIVRQHIVPALKAHIASGNKSRKPLVISFHGQPGTGKNFVAEQIADAMYLKGSRSNYVTKYLGQADFPKESEVSNYRVKINNAVRDTLRSCPRSLFIFDEVDKMPSGVFDQLTSLVDYNAFVDGTDNTKAIFIFLSNTAGSHIASHLGSVMKNGRLREDTRLSDFEPLLRKAAYNMDGGMKKTTMIESHVIDHFIPFLPMEKAHVIKCLEAELLRWRRDPKQANNQKIIEDIINSSISYDRTHSLFAISGCKTLEKKVAMAIY
On to B1, for which the binding entry is on record as “binds”.
